From patent publication EP4840863A1, “FLUORINE-CONTAINING PARTHENOLIDE DERIVATIVE, PREPARATION METHOD THEREFOR AND USE THEREOF” (dated 2026) come the findings set out here.

Structures are written as SMILES. Marks after values point to notes of the source that are not given here. For part of its entries the source gives two or more results. The list is limited to them. The source may hold further records. Values that stand side by side do not match, cause unknown; dose, time, organism, isomer or construct need not be as stated for each record.

Data set [1] is described as follows: Pharmacokinetic study of Compound 4: plasma concentrations (LC/MS). The settings on record: iv (10 mg/kg) Compound 4, 3h, individual mice. As to the method:
(1) Forty-eight healthy Bar b/c mice, each weighing approximately 20 g, were taken and divided into 3 groups. Blank control group (6 mice), oral gavage administration group (Compound 4 dose: 50 mg/kg, 21 mice), and tail vein injection administration group (Compound 4 dose: 10 mg/kg, 21 mice) (2) For the oral gavage group, blood samples were collected at 5 min, 15 min, 30 min, 1 h, 3 h, 8 h, and 24 h after administration. For the intravenous injection group, blood samples were collected at 2 min, 5 min, 15 min, 30 min, 1 h, 3 h, 8 h, and 24 h after administration. Blood was collected from mice via eyeball removal and placed in anticoagulant tubes containing sodium heparin. The samples were immediately centrifuged at 5000 rpm at low temperature (4°C) for 10 min to obtain plasma samples. The samples were stored in a -80°C freezer for analysis. Three mice were used per time point. (3) The mouse was fixed on a foam board. The skin on the chest was lifted with forceps, and the thoracic skin and ribs were cut open with scissors to expose the heart and liver. The auricle was then cut open. A syringe needle was inserted into the left ventricle of the mouse, and normal saline was perfused for approximately 1 min (10-20 mL) until the mouse's limbs, liver, and tongue turned pale. […] (4) The contents of Compound 4 and Compound 1 in peripheral blood and tissues were detected by LC/MS. […]

The nature of data set [2]: Distribution of Compound 4 and released Compound 1 in tissues (brain, pancreas, rectum, liver, lung; LC/MS). The conditions noted are these: individual mice. The procedure: (1) Forty-eight healthy Bar b/c mice, each weighing approximately 20 g, were taken and divided into 3 groups. Blank control group (6 mice), oral gavage administration group (Compound 4 dose: 50 mg/kg, 21 mice), and tail vein injection administration group (Compound 4 dose: 10 mg/kg, 21 mice) (2) For the oral gavage group, blood samples were collected at 5 min, 15 min, 30 min, 1 h, 3 h, 8 h, and 24 h after administration. For the intravenous injection group, blood samples were collected at 2 min, 5 min, 15 min, 30 min, 1 h, 3 h, 8 h, and 24 h after administration. Blood was collected from mice via eyeball removal and placed in anticoagulant tubes containing sodium heparin. The samples were immediately centrifuged at 5000 rpm at low temperature (4°C) for 10 min to obtain plasma samples. The samples were stored in a -80°C freezer for analysis. Three mice were used per time point. (3) The mouse was fixed on a foam board. The skin on the chest was lifted with forceps, and the thoracic skin and ribs were cut open with scissors to expose the heart and liver. The auricle was then cut open. A syringe needle was inserted into the left ventricle of the mouse, and normal saline was perfused for approximately 1 min (10-20 mL) until the mouse's limbs, liver, and tongue turned pale. Brain collection: The skin on the head was cut open to expose the white skull. The cartilage was cut, the skull cap was carefully pried open to expose the white brain, and the entire brain was dissected out. Tissues such as the pancreas, liver, lung, and rectum were also collected. The samples were stored in a -80°C freezer for analysis. (4) The contents of Compound 4 and Compound 1 in peripheral blood and tissues were detected by LC/MS. MS/MS information

The mark [3] stands for this setting: iv (10 mg/kg) Compound 4, 30min, 10 mg/kg.
[4] abbreviates: iv (10 mg/kg) Compound 4, 3h, 10 mg/kg.

For the molecule `C=C1C(=O)OC2C1CCC(CC(F)(F)F)=CCCC1(C)OC21` (centres unmarked), in data set [1], the “Plasma Concentrations of the Released Active Substance Compound 1” value was 2.18* ng/mL and 2.95* ng/mL. Further, the “Concentrations of Compound 1 in Pancreatic Tissue” value in data set [2] (iv (10 mg/kg) Compound 4, 15min, 10 mg/kg) is 9.82* ng/g and 18.5* ng/g; in data set [2] (setting [3]), 5.60* ng/g, 15.2* ng/g, 14.2* ng/g. In addition, the “Concentration of Compound 1 in the Lung” value is on record as 5.76* ng/g, 6.21* ng/g, 2.23* ng/g in data set [2] (setting [3]) and 14.7* ng/g, 18.7* ng/g, 7.19* ng/g in data set [2] (po (50 mg/kg) Compound 4, 3h, 50 mg/kg). In addition, the “Concentrations of Compound 1 in Rectum” value in data set [2] (iv (10 mg/kg) Compound 4, 1h, 10 mg/kg) was 11.0* ng/g and 5.37* ng/g; in data set [2] (setting [4]) it was 0.874* ng/g and 0.305* ng/g. In data set [2] (setting [4]), the “Concentration of Compound 1 in Liver” value is 2.32* ng/g and 4.09* ng/g.
